{"source": "PubChem BioAssay AID1159578 (Peter MacCallum Cancer Centre, 2015)", "purpose": "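siRNA pools altering how lymphatic endothelial cells close a scratch wound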 (primary screen)", "system": "human lymphatic endothelial cells", "reagent": "siRNA pool against human genes, 40 nM", "duration": "48 h after transfection", "detection": "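High-content imaging of dye-stained cells in a scratch assay measures filled wound area and nuclei per well; duplicate means given as ratio to mock and robust z-score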", "direction": "migration robust z-score: higher = faster migration into the scratch; nuclei per well: higher = more cells in the well", "hit rule": "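Pools averaging fewer than 3300 nuclei are never called; remaining pools count as changed when migration robust z lies outside -2 to 2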", "meaning of the calls": "active = migration changed; inactive = no migration change, or too few cells", "note": "The whole screen tested about 18,000 reagents; shown is a random part of them. Over the whole deposit, about 1,030 (5.7%) are marked active. 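Inactive calls also include pools with fewer than 3300 nuclei, whose migration was not assessed.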 The raw values are shown without normalisation. Not all columns of the deposit are shown. Reagent sequences are not shown."}
{"target": "GATAD1", "migration robust z-score": 0.23, "migration class with cell-count check": "migration z between -2 and 2; enough cells", "nuclei per well, duplicate mean": 6525, "Outcome": "inactive"}
{"target": "HBEGF", "migration robust z-score": -1.48, "migration class with cell-count check": "migration z between -2 and 2; enough cells", "nuclei per well, duplicate mean": 4104, "Outcome": "inactive"}
{"target": "DGKZ", "migration robust z-score": 0.24, "migration class with cell-count check": "migration z between -2 and 2; enough cells", "nuclei per well, duplicate mean": 4869, "Outcome": "inactive"}
{"target": "CYLC1", "migration robust z-score": 0.3, "migration class with cell-count check": "migration z between -2 and 2; enough cells", "nuclei per well, duplicate mean": 5896, "Outcome": "inactive"}
{"target": "TIRAP", "migration robust z-score": -0.92, "migration class with cell-count check": "migration z between -2 and 2; enough cells", "nuclei per well, duplicate mean": 5580, "Outcome": "inactive"}
{"target": "GYS1", "migration robust z-score": 1.94, "migration class with cell-count check": "migration z between -2 and 2; enough cells", "nuclei per well, duplicate mean": 5902, "Outcome": "inactive"}
{"target": "CLDN2", "migration robust z-score": -0.76, "migration class with cell-count check": "migration z between -2 and 2; enough cells", "nuclei per well, duplicate mean": 5312, "Outcome": "inactive"}

3 successive records already listed, quoted:
{"target": "TIRAP", "migration robust z-score": -0.92, "migration class with cell-count check": "migration z between -2 and 2; enough cells", "nuclei per well, duplicate mean": 5580, "Outcome": "inactive"}
{"target": "GYS1", "migration robust z-score": 1.94, "migration class with cell-count check": "migration z between -2 and 2; enough cells", "nuclei per well, duplicate mean": 5902, "Outcome": "inactive"}
{"target": "CLDN2", "migration robust z-score": -0.76, "migration class with cell-count check": "migration z between -2 and 2; enough cells", "nuclei per well, duplicate mean": 5312, "Outcome": "inactive"}

Continued.
{"target": "SVOP", "migration robust z-score": 0.08, "migration class with cell-count check": "migration z between -2 and 2; enough cells", "nuclei per well, duplicate mean": 5545, "Outcome": "inactive"}
{"target": "ZNF184", "migration robust z-score": 0.18, "migration class with cell-count check": "migration z between -2 and 2; enough cells", "nuclei per well, duplicate mean": 4956, "Outcome": "inactive"}
{"target": "WNT6", "migration robust z-score": -1.5, "migration class with cell-count check": "migration z between -2 and 2; enough cells", "nuclei per well, duplicate mean": 5922, "Outcome": "inactive"}
{"target": "AMPD1", "migration robust z-score": 0.52, "migration class with cell-count check": "migration z between -2 and 2; enough cells", "nuclei per well, duplicate mean": 6788, "Outcome": "inactive"}
{"target": "TNFRSF12A", "migration robust z-score": -0.34, "migration class with cell-count check": "migration z between -2 and 2; enough cells", "nuclei per well, duplicate mean": 6734, "Outcome": "inactive"}
{"target": "APOC4", "migration robust z-score": -1.03, "migration class with cell-count check": "migration z between -2 and 2; enough cells", "nuclei per well, duplicate mean": 5296, "Outcome": "inactive"}
{"target": "DNAAF2", "migration robust z-score": -0.82, "migration class with cell-count check": "migration z between -2 and 2; enough cells", "nuclei per well, duplicate mean": 5872, "Outcome": "inactive"}
{"target": "CDC42EP1", "migration robust z-score": -0.9, "migration class with cell-count check": "migration z between -2 and 2; enough cells", "nuclei per well, duplicate mean": 4583, "Outcome": "inactive"}
{"target": "ATXN2", "migration robust z-score": 0.17, "migration class with cell-count check": "migration z between -2 and 2; enough cells", "nuclei per well, duplicate mean": 5336, "Outcome": "inactive"}
{"target": "CCND1", "migration robust z-score": -0.88, "migration class with cell-count check": "under 3300 nuclei; migration not judged", "nuclei per well, duplicate mean": 2425, "Outcome": "inactive"}
{"target": "XKR6", "migration robust z-score": 0.9, "migration class with cell-count check": "migration z between -2 and 2; enough cells", "nuclei per well, duplicate mean": 5310, "Outcome": "inactive"}
{"target": "SLC2A4RG", "migration robust z-score": -0.76, "migration class with cell-count check": "migration z between -2 and 2; enough cells", "nuclei per well, duplicate mean": 4020, "Outcome": "inactive"}
{"target": "UBALD1", "migration robust z-score": -1.73, "migration class with cell-count check": "migration z between -2 and 2; enough cells", "nuclei per well, duplicate mean": 6176, "Outcome": "inactive"}
{"target": "XKR3", "migration robust z-score": -0.94, "migration class with cell-count check": "migration z between -2 and 2; enough cells", "nuclei per well, duplicate mean": 7034, "Outcome": "inactive"}
